Paper PMC12288965
Results are given in words; binding and its absence hold for the method and conditions named. In cells and extracts the contact can be indirect. Some binding calls cover weakened binding; strength is not graded here.

Sequences of proteins named here, by UniProt entry; tags and fusion partners are left off.
UniProt P08047: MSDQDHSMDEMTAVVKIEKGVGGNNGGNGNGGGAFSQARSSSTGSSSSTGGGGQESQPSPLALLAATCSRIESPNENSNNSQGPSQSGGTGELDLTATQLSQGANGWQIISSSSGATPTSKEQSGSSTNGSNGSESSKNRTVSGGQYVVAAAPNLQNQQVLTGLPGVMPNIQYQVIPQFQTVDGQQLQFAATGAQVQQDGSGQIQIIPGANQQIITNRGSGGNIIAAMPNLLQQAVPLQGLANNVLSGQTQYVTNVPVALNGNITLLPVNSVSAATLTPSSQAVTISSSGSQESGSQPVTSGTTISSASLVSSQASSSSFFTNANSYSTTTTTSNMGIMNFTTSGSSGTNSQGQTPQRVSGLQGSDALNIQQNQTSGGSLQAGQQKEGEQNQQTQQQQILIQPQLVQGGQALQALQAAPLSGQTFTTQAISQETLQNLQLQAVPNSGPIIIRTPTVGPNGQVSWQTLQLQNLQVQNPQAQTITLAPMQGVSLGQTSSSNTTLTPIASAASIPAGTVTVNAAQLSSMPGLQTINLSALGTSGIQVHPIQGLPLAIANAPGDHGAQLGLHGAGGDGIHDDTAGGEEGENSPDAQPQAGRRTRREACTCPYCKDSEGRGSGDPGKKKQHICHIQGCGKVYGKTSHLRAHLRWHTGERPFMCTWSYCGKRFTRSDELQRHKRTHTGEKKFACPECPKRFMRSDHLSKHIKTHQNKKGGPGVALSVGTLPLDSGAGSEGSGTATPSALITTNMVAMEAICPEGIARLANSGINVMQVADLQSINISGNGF
UniProt P40763: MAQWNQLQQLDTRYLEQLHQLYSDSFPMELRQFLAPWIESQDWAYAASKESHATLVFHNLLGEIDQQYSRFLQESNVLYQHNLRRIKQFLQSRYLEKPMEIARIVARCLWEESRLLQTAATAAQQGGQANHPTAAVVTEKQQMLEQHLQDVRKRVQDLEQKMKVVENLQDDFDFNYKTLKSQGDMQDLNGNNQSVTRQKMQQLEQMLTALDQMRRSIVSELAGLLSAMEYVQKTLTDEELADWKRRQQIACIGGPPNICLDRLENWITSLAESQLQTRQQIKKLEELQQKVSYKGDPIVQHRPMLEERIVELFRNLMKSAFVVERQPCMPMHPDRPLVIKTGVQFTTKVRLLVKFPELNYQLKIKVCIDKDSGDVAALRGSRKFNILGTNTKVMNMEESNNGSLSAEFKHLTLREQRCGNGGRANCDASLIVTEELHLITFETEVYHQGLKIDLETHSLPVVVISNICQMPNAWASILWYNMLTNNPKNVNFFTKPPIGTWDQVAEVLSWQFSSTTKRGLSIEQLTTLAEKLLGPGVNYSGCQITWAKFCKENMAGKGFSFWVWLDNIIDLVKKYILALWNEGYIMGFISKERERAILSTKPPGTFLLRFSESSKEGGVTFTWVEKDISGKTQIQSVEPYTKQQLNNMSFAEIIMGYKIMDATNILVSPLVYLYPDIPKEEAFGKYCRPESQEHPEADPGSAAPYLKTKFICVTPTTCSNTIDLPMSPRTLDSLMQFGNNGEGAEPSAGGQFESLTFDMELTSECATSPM
UniProt Q9Y297: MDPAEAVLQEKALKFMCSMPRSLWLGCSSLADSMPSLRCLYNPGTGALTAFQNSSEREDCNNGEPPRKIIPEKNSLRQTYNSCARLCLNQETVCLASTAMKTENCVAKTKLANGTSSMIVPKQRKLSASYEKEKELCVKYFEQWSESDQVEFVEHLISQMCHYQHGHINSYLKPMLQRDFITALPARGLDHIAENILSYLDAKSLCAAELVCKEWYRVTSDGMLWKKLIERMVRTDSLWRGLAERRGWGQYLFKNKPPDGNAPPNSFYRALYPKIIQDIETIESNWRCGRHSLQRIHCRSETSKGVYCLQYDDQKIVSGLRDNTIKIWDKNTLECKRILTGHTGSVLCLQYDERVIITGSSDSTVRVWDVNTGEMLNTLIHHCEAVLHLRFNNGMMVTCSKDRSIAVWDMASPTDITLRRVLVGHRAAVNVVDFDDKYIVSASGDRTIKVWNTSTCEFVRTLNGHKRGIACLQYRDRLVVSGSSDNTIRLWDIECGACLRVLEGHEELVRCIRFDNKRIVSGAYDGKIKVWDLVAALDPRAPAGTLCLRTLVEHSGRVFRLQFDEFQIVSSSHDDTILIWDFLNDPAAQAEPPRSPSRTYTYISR
UniProt Q16665: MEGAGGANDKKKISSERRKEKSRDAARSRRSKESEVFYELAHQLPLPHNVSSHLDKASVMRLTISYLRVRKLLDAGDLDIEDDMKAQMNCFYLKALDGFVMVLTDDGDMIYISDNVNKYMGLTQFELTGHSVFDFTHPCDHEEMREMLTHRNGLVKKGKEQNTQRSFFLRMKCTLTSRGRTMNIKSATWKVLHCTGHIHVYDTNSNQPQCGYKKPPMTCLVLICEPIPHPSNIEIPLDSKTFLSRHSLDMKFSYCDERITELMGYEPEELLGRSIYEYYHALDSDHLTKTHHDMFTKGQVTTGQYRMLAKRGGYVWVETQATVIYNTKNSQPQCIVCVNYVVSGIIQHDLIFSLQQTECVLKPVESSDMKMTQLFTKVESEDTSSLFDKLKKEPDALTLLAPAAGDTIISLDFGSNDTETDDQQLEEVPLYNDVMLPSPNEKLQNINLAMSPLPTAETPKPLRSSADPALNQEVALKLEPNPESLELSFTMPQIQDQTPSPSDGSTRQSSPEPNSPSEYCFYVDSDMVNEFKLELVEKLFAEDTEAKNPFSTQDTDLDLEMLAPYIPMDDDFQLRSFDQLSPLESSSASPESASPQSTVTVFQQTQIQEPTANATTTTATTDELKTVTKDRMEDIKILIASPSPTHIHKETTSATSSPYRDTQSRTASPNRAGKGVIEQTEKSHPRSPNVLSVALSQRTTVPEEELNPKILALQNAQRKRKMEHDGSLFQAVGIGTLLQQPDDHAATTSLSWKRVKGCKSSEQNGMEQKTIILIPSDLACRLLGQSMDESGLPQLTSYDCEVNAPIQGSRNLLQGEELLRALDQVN

Key:
[1] = target: specificity protein 1 (human (endogenous in SW620)) (UniProt P08047); test: co-IP; SW620 cells under normoxic or hypoxic conditions; lysis buffer 20 mmol/L Tris-HCl pH 7.4, 150 mmol/L NaCl, 1% NP-40, 1 mmol/L EDTA, 5% glycerol; specific antibodies overnight, Protein A/G magnetic beads, Western blot
STAT3 = STAT3 (UniProt P40763); test: co-IP; immunoprecipitation (IP) assay of STAT3 and ANGPTL4; cells and precipitating antibody not named for this experiment

beta-transducin repeat containing E3 ubiquitin protein (from UniProt Q9Y297 1-605)
binding [1]: binds

hypoxia-inducible factor 1A (from UniProt Q16665 1-826)
binding [1]: binds

B1: angiopoietin like 4 (protein, UniProt Q9BY76 26-406)
chain: GPVQSKSPRFASWDEMNVLAHGLLQLGQGLREHAERTRSQLSALERRLSACGSACQGTEGSTDLPLAPESRVDPEVLHSLQTQLKAQNSRIQQLFHKVAQQQRHLEKQHLRIQHLQSQFGLLDHKHLDHEVAKPARRKRLPEMAQPVDPAHNVSRLHRLPRDCQELFQVGERQSGLFEIQPQGSPPFLVNCKMTSDGGWTVIQRRHDGSVDFNRPWEAYKAGFGDPHGEFWLGLEKVHSITGDRNSRLAVQLRDWDGNAELLQFSVHLGGEDTAYSLQLTAPVAGQLGATTVPPSGLSVPFSTWDQDHDLRRDKNCAKSLSGGWWFGTCSHSNLNGQYFRSIPQQRQKLKKGIFWKTWRGRYYPLQATTMLIQPMAAEAAS
binding (STAT3): binds
